Values from PubChem BioAssay AID1259308 (NCATS, 2017).
Here is an unselected part of about 59,000 reagents. Of all reagents, about 1,510 (2.6%) got an active call. 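Calls use total luciferase alone and ignore viability, so some active siRNAs may act by altering cell number.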 The numbers tell different reagents against one gene apart. No sequences are given here.

Screen: 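Genes whose loss raises luciferase production in HEK293 cells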 (primary screen)
Cell system: human HEK293 embryonic kidney cells stably expressing firefly luciferase (HEK-CMV-Luc2-Hygro)
Knock-down reagent: single siRNA against human genes, 0.8 pmol siRNA per well
Duration: 72 h
Detection: 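Reporter luminescence and viable-cell signal on separate replicate plates, given as percent of non-targeting control and median/MAD z-scores, plus per-cell luciferase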
Direction: total luciferase, z-score and total luciferase, % of control: higher = more reporter protein produced; luciferase per cell, z-score: higher = more reporter output per viable cell; viable cells, % of control: higher = more viable cells
Active means: 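An siRNA counts as active if its total luciferase robust z-score exceeds 3; genes with two or more such siRNAs out of three were retested with fresh siRNAs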
Calls: active = raised luciferase; inactive = no rise

| Target gene | siRNA no. | total luciferase, z-score | total luciferase, % of control | luciferase per cell, z-score | viable cells, % of control | Call |
| --- | --- | --- | --- | --- | --- | --- |
| POLR1G (RNA polymerase I subunit G) | 1 | 0.134 | 84.6 | 0.377 | 85.6 | inactive |
| POLR1G (RNA polymerase I subunit G) | 2 | 1.47 | 111 | 1.81 | 77 | inactive |
| POLR1G (RNA polymerase I subunit G) | 3 | 2.05 | 123 | 2.07 | 79.4 | inactive |
| NT5C (5', 3'-nucleotidase, cytosolic) | 1 | 0.209 | 86 | -0.351 | 105 | inactive |
| NT5C (5', 3'-nucleotidase, cytosolic) | 2 | 1.89 | 120 | 2.18 | 75.2 | inactive |
| NT5C (5', 3'-nucleotidase, cytosolic) | 3 | 0.158 | 85 | 0.144 | 91.5 | inactive |
| MPST (mercaptopyruvate sulfurtransferase) | 1 | -1 | 62 | -1.72 | 109 | inactive |
| MPST (mercaptopyruvate sulfurtransferase) | 2 | 0.236 | 86.6 | 0.411 | 86.8 | inactive |
| MPST (mercaptopyruvate sulfurtransferase) | 3 | 2.62 | 134 | 2.84 | 70.9 | inactive |
| MID2 (midline 2) | 1 | -0.251 | 76.9 | -0.52 | 98.5 | inactive |
| MID2 (midline 2) | 2 | -2.03 | 41.4 | -1.88 | 76 | inactive |
| MID2 (midline 2) | 3 | -1.28 | 56.5 | -0.847 | 78.9 | inactive |
| PPP2R2A (protein phosphatase 2 regulatory subunit Balpha) | 1 | -1.16 | 58.7 | -1.78 | 105 | inactive |
| PPP2R2A (protein phosphatase 2 regulatory subunit Balpha) | 2 | -1.11 | 59.8 | -1.41 | 97 | inactive |
| PPP2R2A (protein phosphatase 2 regulatory subunit Balpha) | 3 | -2.46 | 33 | -3.71 | 98.1 | inactive |
| ZNF287 (zinc finger protein 287) | 1 | -0.864 | 64.7 | -1.33 | 103 | inactive |
| ZNF287 (zinc finger protein 287) | 2 | -0.604 | 69.9 | -0.865 | 98 | inactive |
| ZNF287 (zinc finger protein 287) | 3 | 4.28 | 167 | 3.03 | 84 | active |
| NIPSNAP2 (nipsnap homolog 2) | 1 | 0.198 | 85.8 | 0.211 | 90.7 | inactive |
| NIPSNAP2 (nipsnap homolog 2) | 2 | 0.793 | 97.7 | 1.08 | 82 | inactive |
| NIPSNAP2 (nipsnap homolog 2) | 3 | -0.615 | 69.7 | 0.196 | 73.9 | inactive |
| SNU13 (small nuclear ribonucleoprotein 13) | 1 | 0.597 | 93.8 | -0.238 | 112 | inactive |
| SNU13 (small nuclear ribonucleoprotein 13) | 2 | 1.08 | 103 | 4.9 | 31.8 | inactive |
| SNU13 (small nuclear ribonucleoprotein 13) | 3 | 1.3 | 108 | 5.8 | 26.1 | inactive |
| OR5H2 (olfactory receptor family 5 subfamily H member 2) | 1 | -0.828 | 65.4 | -0.872 | 92 | inactive |
| OR5H2 (olfactory receptor family 5 subfamily H member 2) | 2 | -0.903 | 63.9 | -0.541 | 82.4 | inactive |
| OR5H2 (olfactory receptor family 5 subfamily H member 2) | 3 | -0.912 | 63.7 | -1.46 | 105 | inactive |
| INSL3 (insulin like 3) | 1 | 1.03 | 102 | 0.746 | 94 | inactive |
| INSL3 (insulin like 3) | 2 | 1.44 | 111 | 1.01 | 94.8 | inactive |
| INSL3 (insulin like 3) | 3 | 0.687 | 95.6 | 1.29 | 76.1 | inactive |
| SULT2B1 (sulfotransferase family 2B member 1) | 1 | -0.254 | 76.8 | -0.566 | 99.7 | inactive |
| SULT2B1 (sulfotransferase family 2B member 1) | 2 | 0.831 | 98.4 | -0.254 | 118 | inactive |
| SULT2B1 (sulfotransferase family 2B member 1) | 3 | -0.173 | 78.4 | -0.569 | 102 | inactive |
| TMOD2 (tropomodulin 2) | 1 | 1.66 | 115 | 1.09 | 96.4 | inactive |
| TMOD2 (tropomodulin 2) | 2 | 0.493 | 91.7 | 0.0709 | 101 | inactive |
| TMOD2 (tropomodulin 2) | 3 | -0.736 | 67.2 | -0.605 | 88.1 | inactive |
| ZNF253 (zinc finger protein 253) | 1 | 0.698 | 95.8 | 1.61 | 70.1 | inactive |
| ZNF253 (zinc finger protein 253) | 2 | 1.68 | 115 | 1.18 | 94.3 | inactive |
| ZNF253 (zinc finger protein 253) | 3 | -0.804 | 65.9 | 0.91 | 58 | inactive |
| ANO2 (anoctamin 2) | 1 | -1.04 | 61.1 | -1.13 | 92.1 | inactive |
| ANO2 (anoctamin 2) | 2 | -0.29 | 76.1 | -0.737 | 103 | inactive |
| ANO2 (anoctamin 2) | 3 | -0.078 | 80.3 | -0.142 | 93.2 | inactive |
| MOB2 (MOB kinase activator 2) | 1 | 0.0151 | 82.2 | -0.259 | 98.3 | inactive |
| MOB2 (MOB kinase activator 2) | 2 | 0.132 | 84.5 | 0.708 | 78.4 | inactive |
| MOB2 (MOB kinase activator 2) | 3 | 0.223 | 86.3 | 0.0101 | 96.2 | inactive |
| FBXO4 (F-box protein 4) | 1 | -0.754 | 66.9 | -0.0771 | 76.3 | inactive |
| FBXO4 (F-box protein 4) | 2 | 0.92 | 100 | 0.417 | 100 | inactive |
| FBXO4 (F-box protein 4) | 3 | 3 | 142 | 2.75 | 76.6 | active |
| MTUS2-AS1 (MTUS2 antisense RNA 1) | 1 | 1.75 | 117 | 1.87 | 79.6 | inactive |
| MTUS2-AS1 (MTUS2 antisense RNA 1) | 2 | 0.381 | 89.5 | 0.872 | 79.5 | inactive |
| MTUS2-AS1 (MTUS2 antisense RNA 1) | 3 | 0.342 | 88.7 | 0.239 | 93.1 | inactive |
| CLSPN (claspin) | 1 | -1.06 | 60.8 | -0.31 | 73.7 | inactive |
| CLSPN (claspin) | 2 | 1.25 | 107 | 0.928 | 93.5 | inactive |
| CLSPN (claspin) | 3 | -0.888 | 64.2 | -1.47 | 106 | inactive |
| ZNF235 (zinc finger protein 235) | 1 | -0.233 | 77.3 | 0.558 | 74.5 | inactive |
| ZNF235 (zinc finger protein 235) | 2 | -0.539 | 71.2 | -0.0694 | 81 | inactive |
| ZNF235 (zinc finger protein 235) | 3 | -0.0515 | 80.9 | -0.635 | 107 | inactive |
